The other results are listed elsewhere or left out.
Biological target: OsWRKY34 (Oryza sativa, UniProt Q0JBA9 1-250)
Test: protein-binding microarray (RPBM); PBS, 2% BSA, 51.3 ng/ul salmon testes DNA, 50 uM zinc acetate, 200 nM TF, 25 C, 1 h; high values mean tight binding
Settings: protein: recombinant; tags: N-terminal polyhistidine and DsRed monomer fusion (pET32a); label: CyDye5-dUTP incorporated in the synthesized complementary strand; 3' TTTTT single-stranded linker to array surface; dsDNA, one strand shown
Method in brief: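 The binding signal for each feature is its fluorescence intensity in arbitrary units. An Axon 4000B scanner was used to read a custom Agilent array that had been made double-stranded with Cy5-dUTP primer extension, blocked with 2% BSA, incubated at 25 °C for 1 h with 200 nM protein in PBS, 2% BSA, salmon testes DNA and 50 µM zinc acetate, and washed. The protein was an N-terminal polyhistidine–DsRed transcription factor fusion from E. coli BL21-CodonPlus, purified on Ni–NTA.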

Amino acid sequences for entries named in this document (tags omitted).
UniProt Q0JBA9, entry or part of it: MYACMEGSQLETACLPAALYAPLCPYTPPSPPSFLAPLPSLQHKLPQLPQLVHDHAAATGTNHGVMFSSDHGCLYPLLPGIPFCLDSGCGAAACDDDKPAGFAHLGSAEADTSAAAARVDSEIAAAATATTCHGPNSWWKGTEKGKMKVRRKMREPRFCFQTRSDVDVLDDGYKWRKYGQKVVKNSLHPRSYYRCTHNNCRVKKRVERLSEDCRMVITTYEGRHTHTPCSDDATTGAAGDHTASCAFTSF

Sequence | binding signal
GCCCAAATATTCCCGTGGCCCATCTCCTCCTCCGTCTCGGCGGAGTCACCTAGTGCAG | 8060 fluorescence intensity (a.u.)
ATCGACTTCATCCTCCTGTGCATTTCATCTTTTTCTTTATCGGAGTCACCTAGTGCAG | 8770 fluorescence intensity (a.u.)
ATCAAAGTTGCTGGGGTTAATTTGGGTTCTTGGTTGTGAACGGAGTCACCTAGTGCAG | 15600 fluorescence intensity (a.u.)
GTAGCGGCGGCCCGGCAGGAGGGGAGGCGGGGTGGCGGGACGGAGTCACCTAGTGCAG | 16200 fluorescence intensity (a.u.)
AGCCCACCGTCGCAGCCGGAGCAACCGCACTGTTCACACACGGAGTCACCTAGTGCAG | 8140 fluorescence intensity (a.u.)
ATCCTCCGTCTCTTCTGTCTCTCTCTCAAGTCTGAGCAACCGGAGTCACCTAGTGCAG | 8370 fluorescence intensity (a.u.)
GACGAGCATTCCTGCCGTTCCCGGTACACGTCGTCCCTCTCGGAGTCACCTAGTGCAG | 8360 fluorescence intensity (a.u.)
GCGGCGCCTTCTCCAGTTCTCTTGCTTGGCAACTGATCCGCGGAGTCACCTAGTGCAG | 8710 fluorescence intensity (a.u.)
TCAATTAATTTTATTCGATTCATAGCCTCGACATTACTAGCGGAGTCACCTAGTGCAG | 8850 fluorescence intensity (a.u.)
CTCTTCGTCCAGTTCATCATCCTCGTCCGCCCCATCGACGCGGAGTCACCTAGTGCAG | 8570 fluorescence intensity (a.u.)
ATTTTGGAAGTTTTTGTCATAGGGGTATTTTGGTCATTTCCGGAGTCACCTAGTGCAG | 11200 fluorescence intensity (a.u.)
AGGAAAACAAAATCCTTCACACCGTTTTTTTCTAATATACCGGAGTCACCTAGTGCAG | 8660 fluorescence intensity (a.u.)
GAGACATCCTTAGCCGGGTCTGTGATCACTTTTGCTTACACGGAGTCACCTAGTGCAG | 12000 fluorescence intensity (a.u.)
GGCCTTGTTTTTTTTTTTGCTAGTAATTTAGGTTCCACAACGGAGTCACCTAGTGCAG | 9880 fluorescence intensity (a.u.)
GATAAGGCGCCCCACCCGTCAGTCTCACGGTTTCTGCTTTCGGAGTCACCTAGTGCAG | 10700 fluorescence intensity (a.u.)
GCTCTAACTCCTCCAATCTCCTAGCCAAAGTAATCCATAGCGGAGTCACCTAGTGCAG | 8090 fluorescence intensity (a.u.)
ATATTCAGTTTGTTTCTCCTGGCAGAACCACTTTTCTTCTCGGAGTCACCTAGTGCAG | 11500 fluorescence intensity (a.u.)
CTGTTAGTTTCTAGTTGCTGTTTACATTGTAACTTTTTGTCGGAGTCACCTAGTGCAG | 11000 fluorescence intensity (a.u.)
TAGAACCGTCATCTCCCGCCTGGGCCCCACATACCAGCCACGGAGTCACCTAGTGCAG | 8420 fluorescence intensity (a.u.)
GCTGCTACTCTCAACCAGTTCTTCTTTCCTATACCACCACCGGAGTCACCTAGTGCAG | 10500 fluorescence intensity (a.u.)
CATTTTAGAACTTGTTGGTACTGTACTTGTTTTTTTTTTTCGGAGTCACCTAGTGCAG | 8720 fluorescence intensity (a.u.)
CTCATTTCCAAACACATATACATTATTCACAGCTAGCACTCGGAGTCACCTAGTGCAG | 8200 fluorescence intensity (a.u.)
GTTAGTTTTGGAAGTTGAGGGACATATCATATCTGGTGTTCGGAGTCACCTAGTGCAG | 8570 fluorescence intensity (a.u.)
CAGTTCCGTCTTCCGTCCGCCTCACTCACGGCGTCGCGCCCGGAGTCACCTAGTGCAG | 10000 fluorescence intensity (a.u.)
GAGGGAGTATGGTTTTCAAAATAATCGGTTTAACAGTTTTCGGAGTCACCTAGTGCAG | 8030 fluorescence intensity (a.u.)
GCAGCCGGACCGTCACGTTGCTTGCGCTGTTGGCTGTTGCCGGAGTCACCTAGTGCAG | 8910 fluorescence intensity (a.u.)
ACCCTATGGATTTTTGTGCGCTTATATACCACTTCTACTTCGGAGTCACCTAGTGCAG | 9910 fluorescence intensity (a.u.)

Quoted at random: two records from the list
Sequence | binding signal
ATATTCAGTTTGTTTCTCCTGGCAGAACCACTTTTCTTCTCGGAGTCACCTAGTGCAG | 11500 fluorescence intensity (a.u.)
GACGAGCATTCCTGCCGTTCCCGGTACACGTCGTCCCTCTCGGAGTCACCTAGTGCAG | 8360 fluorescence intensity (a.u.)

Next records follow.

Sequence | binding signal
CAGCCACGCCGCCGCGTGCGCCTCTCGTTTTTCCTCTTCTCGGAGTCACCTAGTGCAG | 8040 fluorescence intensity (a.u.)
CGTACGAGACATTTGCTTATCTCATACTCCCTCCGTCCTACGGAGTCACCTAGTGCAG | 10600 fluorescence intensity (a.u.)
TCAGCCGACCTTGCCGTCACACATTAACTGTTCGCTCAGACGGAGTCACCTAGTGCAG | 8730 fluorescence intensity (a.u.)
CATTTGCATCATAGTGTTCAGCTGTTTCTCTCCCTGCTGCCGGAGTCACCTAGTGCAG | 8750 fluorescence intensity (a.u.)
AGACAATTTTGTACTGTTGTACCACATGCATCTTGTGCCCCGGAGTCACCTAGTGCAG | 8210 fluorescence intensity (a.u.)
GCATGGGTCGGGCAGCAGATGGGGAGGTGAGAGTGGGAAACGGAGTCACCTAGTGCAG | 10400 fluorescence intensity (a.u.)
ATCGCTCACAGGTTATGTTTTCACTATTGGAGGATGTGCTCGGAGTCACCTAGTGCAG | 8140 fluorescence intensity (a.u.)
CATCGCCGTCGCCTCTGCCTCCGCCTGGAAGGATGACCTCCGGAGTCACCTAGTGCAG | 8610 fluorescence intensity (a.u.)
GAACCCTGTATACATTAGCTAGTACATAACATACCTTCATCGGAGTCACCTAGTGCAG | 8250 fluorescence intensity (a.u.)
CGGAGTGTTTTTAGCTTCCTCTCCAATCTCTGTATTTCTTCGGAGTCACCTAGTGCAG | 10300 fluorescence intensity (a.u.)
CCTGACTTCCTACACCTCTGTATTGGAACTATTACGACCACGGAGTCACCTAGTGCAG | 8040 fluorescence intensity (a.u.)
ATTCTCTACTGTAATTCACATGCTAATCTTCCAGCCACACCGGAGTCACCTAGTGCAG | 9280 fluorescence intensity (a.u.)
AGTAGTATAGGAGGTAGTAGTAGTAGTAGTAGTAGGTACTCGGAGTCACCTAGTGCAG | 8610 fluorescence intensity (a.u.)
GCAAAATCCTCCTCCCGATCTCCACCACCACTTTCCCATTCGGAGTCACCTAGTGCAG | 8740 fluorescence intensity (a.u.)
AATTATTTAATTTCTCGGTGGCTCGCATTTCCACTCTCTCCGGAGTCACCTAGTGCAG | 12000 fluorescence intensity (a.u.)
AGCAGCATTTCCACTCACTTTTCCGGTTTCCATCGCCCGCCGGAGTCACCTAGTGCAG | 10600 fluorescence intensity (a.u.)
TCGCCGGATTTTTTTTTCTCCCGATCGGTGGGGAGGGCTCCGGAGTCACCTAGTGCAG | 11200 fluorescence intensity (a.u.)
ATTTTATAGGTTTGTAGTATATGTTCTGTTGAAGTTGAACCGGAGTCACCTAGTGCAG | 9740 fluorescence intensity (a.u.)
GCAAGGTCTCTTTCACCAAGTTCTGTACTGTTTATTTTTCCGGAGTCACCTAGTGCAG | 10800 fluorescence intensity (a.u.)
AGTTTCTATTATTTTAGGGTGGTGCTCTATGCTTTTCTCACGGAGTCACCTAGTGCAG | 8740 fluorescence intensity (a.u.)
AGTATCCTTCTCATATCATTTGTTTCTACCTAGGCTTTTGCGGAGTCACCTAGTGCAG | 9980 fluorescence intensity (a.u.)
GCCCGATCAGCTATTGGTCATTTAACTCTGTTTCCTTTATCGGAGTCACCTAGTGCAG | 13200 fluorescence intensity (a.u.)
TATCTGTCAGCAATGTTTCGTCCGTTGGATGTTGATCCCACGGAGTCACCTAGTGCAG | 8050 fluorescence intensity (a.u.)
TATGCGCTCCCAACTTCCATGTGTCCATGTCCATGTCGCGCGGAGTCACCTAGTGCAG | 9530 fluorescence intensity (a.u.)
GCATCCTGTACTTTCAATTTTTCCTGTGTCATCCAATAAACGGAGTCACCTAGTGCAG | 8100 fluorescence intensity (a.u.)
TTCCATGACTGTTTTGTTCAAGTTAGTTTCCTTCATCCATCGGAGTCACCTAGTGCAG | 8400 fluorescence intensity (a.u.)
GCTCGGTGTTGCCCCACTATACGAGGGTATTGTCTCATCGCGGAGTCACCTAGTGCAG | 8070 fluorescence intensity (a.u.)

— paper PMC7819943, “Rice protein-binding microarrays: a tool to detect cis-acting elements near promoter regions in rice”
